# Laboratory results published in the supplement of paper PMC8728848.
# This is one part of the list.
# B1: his-Lectin-24A (Drosophila melanogaster) (protein)
# chain: MFRLSVLVLNLLLVSHEFSAGTAKIEIQPLPALCNGYCFPTLKPVMEYVAIHQDKWNTCTEILANEARKDQIQLNIQLDALKADVSNIKASQLSKDEKLDRMEREQFAMHESLETINRYLTVKLDRTKLQLEAIKNTMDYMKAQMDGYFSAINGVQCLQPGFEKIGDRYFYIEEDVELNWLDAQAKCRRMGGHLASIKTKQEFDAIVEKLDDSKSYFLGVNENTKTGDFVSAASGKSCLYHEWGPGEPHHNNDQERCVSILRKLMHVGNCTYEKRFICQYGI
# What was measured:
# Test in all cases: glycan array binding signal (z-score within array); higher = stronger binding
# Conditions in all cases: glycan notation: IUPAC condensed, linker removed
# [1] = molecular target: GalNAc(b1-3)Gal
# Method in brief: (§1)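 Arrays were curated from the Consortium for Functional Glycomics database, 3228 in total, and kept only where the protein sequence was available. Binding is expressed as a within-array Z-score. This score was averaged across arrays of the same protein sequence at different concentrations or buffers and across linkers, and negative values can be read as non-binding.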
# [2] = molecular target: GalNAc(b1-3)Gal(a1-4)Gal(b1-4)GlcNAc
# Method in brief: as §1
# [3] = molecular target: GalNAc(b1-3)Gal(a1-4)Gal(b1-4)GlcNAc(b1-3)Gal(b1-4)Glc
# Method in brief: as §1
# [4] = molecular target: GalNAc(b1-3)Gal(a1-6)Gal(b1-4)Glc
# Method in brief: as §1
# [5] = molecular target: GalNAc(b1-3)GalNAc
# Method in brief: as §1
# [6] = molecular target: GalNAc(b1-3)GlcNAc
# Method in brief: as §1
# [7] = molecular target: GalNAc(b1-4)Gal(b1-4)Glc
# Method in brief: as §1
# [8] = molecular target: GalNAc(b1-4)GlcNAc
# Method in brief: as §1
# [9] = molecular target: GalNAc(b1-4)GlcNAc(b1-2)Man
# Method in brief: as §1
# [10] = molecular target: GalNAc(b1-4)GlcNAc(b1-2)Man(a1-3)[GalNAc(b1-4)GlcNAc(b1-2)Man(a1-6)]Man(b1-4)GlcNAc(b1-4)GlcNAc
# Method in brief: as §1
# [11] = molecular target: GalNAc(b1-4)GlcNAc(b1-3)GalNAc(b1-4)GlcNAc
# Method in brief: as §1
# [12] = molecular target: GalNAc(b1-4)GlcNAc6S
# Method in brief: as §1
# [13] = molecular target: GalNAc(b1-6)GalNAc
# Method in brief: as §1
# [14] = molecular target: GalNAc3S(b1-4)GlcNAc
# Method in brief: as §1
# [15] = molecular target: GalNAc3S(b1-4)GlcNAc3S
# Method in brief: as §1
# [16] = molecular target: GalNAc3S(b1-4)[Fuc(a1-3)]GlcNAc
# Method in brief: as §1
# [17] = molecular target: GalNAc4S6S(b1-4)GlcNAc
# Method in brief: as §1
# [18] = molecular target: GalNAc6S(b1-4)GlcNAc
# Method in brief: as §1
# [19] = molecular target: Glc(a1-4)Glc
# Method in brief: as §1
# [20] = molecular target: Glc(a1-4)Glc(a1-4)Glc(a1-4)Glc
# Method in brief: as §1
# [21] = molecular target: Glc(a1-6)Glc(a1-6)Glc
# Method in brief: as §1
# [22] = molecular target: Glc(a1-6)Glc(a1-6)Glc(a1-6)Glc
# Method in brief: as §1
# [23] = molecular target: Glc(b1-4)Glc
# Method in brief: as §1
# [24] = molecular target: Glc(b1-6)Glc
# Method in brief: as §1
# [25] = molecular target: GlcA(b1-3)Gal
# Method in brief: as §1
# [26] = molecular target: GlcA(b1-3)GlcNAc
# Method in brief: as §1
# [27] = molecular target: GlcA(b1-6)Gal
# Method in brief: as §1
# [28] = molecular target: GlcA3S(b1-3)Gal(b1-4)GlcNAc(b1-2)Man
# Method in brief: as §1
# [29] = molecular target: GlcA3S(b1-3)Gal(b1-4)GlcNAc(b1-3)Gal(b1-4)Glc
# Method in brief: as §1
# [30] = molecular target: GlcNAc(a1-3)Gal(b1-4)GlcNAc
# Method in brief: as §1
# [31] = molecular target: GlcNAc(a1-4)Gal(b1-3)GlcNAc
# Method in brief: as §1
# [32] = molecular target: GlcNAc(a1-4)Gal(b1-4)GalNAc
# Method in brief: as §1
# [33] = molecular target: GlcNAc(a1-4)Gal(b1-4)GlcNAc
# Method in brief: as §1
# [34] = molecular target: GlcNAc(a1-4)Gal(b1-4)GlcNAc(b1-3)Gal(b1-4)Glc
# Method in brief: as §1
# [35] = molecular target: GlcNAc(a1-4)Gal(b1-4)GlcNAc(b1-3)Gal(b1-4)GlcNAc
# Method in brief: as §1
# [36] = molecular target: GlcNAc(a1-4)Gal(b1-4)GlcNAc(b1-3)Gal(b1-4)GlcNAc(b1-3)Gal(b1-4)GlcNAc
# Method in brief: as §1
# [37] = molecular target: GlcNAc(a1-4)Gal(b1-4)GlcNAc(b1-3)Gal(b1-4)[Fuc(a1-3)]GlcNAc(b1-3)Gal(b1-4)[Fuc(a1-3)]GlcNAc
# Method in brief: as §1
# [38] = molecular target: GlcNAc(a1-6)Gal(b1-4)GlcNAc
# Method in brief: as §1
binder,measurement,setting,value
B1,glycan array binding signal (z-score),[1],1.97
same,glycan array binding signal (z-score),[2],0.373
same,glycan array binding signal (z-score),[3],0.535
same,glycan array binding signal (z-score),[4],-0.756
same,glycan array binding signal (z-score),[5],-0.514
same,glycan array binding signal (z-score),[6],-1.41
same,glycan array binding signal (z-score),[7],0.65
same,glycan array binding signal (z-score),[8],-0.083
same,glycan array binding signal (z-score),[9],-1.85
same,glycan array binding signal (z-score),[10],0.339
same,glycan array binding signal (z-score),[11],-0.119
same,glycan array binding signal (z-score),[12],-1
same,glycan array binding signal (z-score),[13],-0.51
same,glycan array binding signal (z-score),[14],0.808
same,glycan array binding signal (z-score),[15],3.3
same,glycan array binding signal (z-score),[16],0.419
same,glycan array binding signal (z-score),[17],6.71
same,glycan array binding signal (z-score),[18],-0.244
same,glycan array binding signal (z-score),[19],-0.592
same,glycan array binding signal (z-score),[20],-0.325
same,glycan array binding signal (z-score),[21],-1.11
same,glycan array binding signal (z-score),[22],-0.677
same,glycan array binding signal (z-score),[23],-0.805
same,glycan array binding signal (z-score),[24],-0.899
same,glycan array binding signal (z-score),[25],0.317
same,glycan array binding signal (z-score),[26],-0.583
same,glycan array binding signal (z-score),[27],0.235
same,glycan array binding signal (z-score),[28],0.152
same,glycan array binding signal (z-score),[29],-1.2
same,glycan array binding signal (z-score),[30],-0.868
same,glycan array binding signal (z-score),[31],-0.494
same,glycan array binding signal (z-score),[32],-0.345
same,glycan array binding signal (z-score),[33],-0.489
same,glycan array binding signal (z-score),[34],2.7
same,glycan array binding signal (z-score),[35],1.25
same,glycan array binding signal (z-score),[36],-1.01
same,glycan array binding signal (z-score),[37],1.91
same,glycan array binding signal (z-score),[38],1.35

# Part of the list above, bar-delimited.
binder | measurement | setting | value
B1 | glycan array binding signal (z-score) | [35] | 1.25
same | glycan array binding signal (z-score) | [36] | -1.01
